{"source": "patent US9695217B2", "about": "“Peptide domains that bind small molecules” (Iowa State University Research Foundation, Inc., priority 2010, dated 2017)", "conditions_in_all_cases": "GST-fused peptide, about 1 mg, linear gradient 0 to 300 mM imidazole", "key": {"[1]": {"test": "Metal binding preference by FPLC, NTA-agarose column charged with Ni, imidazole elution"}, "[2]": {"test": "Metal binding preference by FPLC, NTA-agarose column charged with Cu, imidazole elution"}, "[3]": {"test": "Metal binding preference by FPLC, NTA-agarose column charged with Zn, imidazole elution"}}, "note": "Some results were stated once for a whole list of compounds, not compound by compound. Some ranges recur; such a range may be that of the whole group of compounds."}
{"sequence": "WGGWRHVHGHRHP [B16]", "values": [{"measurement": "imidazole concentration at elution, Ni", "setting": "[1]", "value": "150-170 mM imidazole"}, {"measurement": "imidazole concentration at elution, Cu", "setting": "[2]", "value": "75-110 mM imidazole"}, {"measurement": "imidazole concentration at elution, Zn", "setting": "[3]", "value": "30-60 mM imidazole"}]}
{"sequence": "YSHHHHHHLAGTA [C26, reference compound]", "values": [{"measurement": "imidazole concentration at elution, Ni", "setting": "[1]", "value": "150-170 mM imidazole"}, {"measurement": "imidazole concentration at elution, Cu", "setting": "[2]", "value": "75-110 mM imidazole"}, {"measurement": "imidazole concentration at elution, Zn", "setting": "[3]", "value": "30-60 mM imidazole"}]}
{"sequence": "YTRTPHVHWHAHG [A15]", "values": [{"measurement": "imidazole concentration at elution, Ni", "setting": "[1]", "value": "150-170 mM imidazole"}, {"measurement": "imidazole concentration at elution, Cu", "setting": "[2]", "value": "75-110 mM imidazole"}, {"measurement": "imidazole concentration at elution, Zn", "setting": "[3]", "value": "30-60 mM imidazole"}]}
